# Test results from the supplement of paper PMC8728848.
# The other results are listed elsewhere or left out.
# Tests used:
# Assay in all cases: glycan array binding signal (z-score within array); higher = stronger binding
# Settings in all cases: glycan notation: IUPAC condensed, linker removed
# [1] = target: GlcNAc(b1-2)Gal(b1-3)GalNAc
# Outline: (§1)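 The Consortium for Functional Glycomics database supplied 3228 glycan arrays, of which those lacking an available protein sequence were dropped. The binding signal, a within-array Z-score, was averaged across arrays of the same protein sequence and across linkers. Negative scores can be read as non-binding.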
# [2] = target: GlcNAc(b1-2)Man(a1-3)[GlcNAc(b1-2)Man(a1-6)]Man(b1-4)GlcNAc(b1-4)GlcNAc
# Outline: as §1
# [3] = target: GlcNAc(b1-2)Man(a1-3)[GlcNAc(b1-2)Man(a1-6)]Man(b1-4)GlcNAc(b1-4)[Fuc(a1-6)]GlcNAc
# Outline: as §1
# [4] = target: GlcNAc(b1-2)Man(a1-3)[GlcNAc(b1-4)][GlcNAc(b1-2)Man(a1-6)]Man(b1-4)GlcNAc(b1-4)GlcNAc
# Outline: as §1
# [5] = target: GlcNAc(b1-2)Man(a1-3)[GlcNAc(b1-4)][GlcNAc(b1-2)Man(a1-6)]Man(b1-4)GlcNAc(b1-4)[Fuc(a1-6)]GlcNAc
# Outline: as §1
# [6] = target: GlcNAc(b1-2)[GlcNAc(b1-4)]Man(a1-3)[GlcNAc(b1-2)Man(a1-6)]Man(b1-4)GlcNAc(b1-4)GlcNAc
# Outline: as §1
# [7] = target: GlcNAc(b1-2)[GlcNAc(b1-4)]Man(a1-3)[GlcNAc(b1-4)][GlcNAc(b1-2)Man(a1-6)]Man(b1-4)GlcNAc(b1-4)GlcNAc
# Outline: as §1
# [8] = target: GlcNAc(b1-2)[GlcNAc(b1-4)]Man(a1-3)[GlcNAc(b1-4)][GlcNAc(b1-2)[GlcNAc(b1-6)]Man(a1-6)]Man(b1-4)GlcNAc(b1-4)GlcNAc
# Outline: as §1
# [9] = target: GlcNAc(b1-2)[GlcNAc(b1-4)]Man(a1-3)[GlcNAc(b1-4)][GlcNAc(b1-2)[GlcNAc(b1-6)]Man(a1-6)]Man(b1-4)GlcNAc(b1-4)[Fuc(a1-6)]GlcNAc
# Outline: as §1
# [10] = target: GlcNAc(b1-2)[GlcNAc(b1-6)]Man(a1-6)[GlcNAc(b1-2)Man(a1-3)]Man(b1-4)GlcNAc(b1-4)GlcNAc
# Outline: as §1
# [11] = target: GlcNAc(b1-2)[GlcNAc(b1-6)]Man(a1-6)[GlcNAc(b1-2)Man(a1-3)]Man(b1-4)GlcNAc(b1-4)[Fuc(a1-6)]GlcNAc
# Outline: as §1
# [12] = target: GlcNAc(b1-2)[GlcNAc(b1-6)]Man(a1-6)[GlcNAc(b1-4)][GlcNAc(b1-2)Man(a1-3)]Man(b1-4)GlcNAc(b1-4)GlcNAc
# Outline: as §1
# GlcNAc(b1-3)Fuc = target: GlcNAc(b1-3)Fuc
# Outline: as §1
# GlcNAc(b1-3)Gal = target: GlcNAc(b1-3)Gal
# Outline: as §1
# [13] = target: GlcNAc(b1-3)Gal(b1-3)GalNAc
# Outline: as §1
# GlcNAc(b1-3)Gal(b1-4)Glc = target: GlcNAc(b1-3)Gal(b1-4)Glc
# Outline: as §1
# [14] = target: GlcNAc(b1-3)Gal(b1-4)GlcNAc
# Outline: as §1
# [15] = target: GlcNAc(b1-3)Gal(b1-4)GlcNAc(b1-2)Man(a1-3)[GlcNAc(b1-3)Gal(b1-4)GlcNAc(b1-2)Man(a1-6)]Man(b1-4)GlcNAc(b1-4)GlcNAc
# Outline: as §1
# [16] = target: GlcNAc(b1-3)Gal(b1-4)GlcNAc(b1-2)Man(a1-3)[GlcNAc(b1-3)Gal(b1-4)GlcNAc(b1-2)Man(a1-6)]Man(b1-4)GlcNAc(b1-4)[Fuc(a1-6)]GlcNAc
# Outline: as §1
# [17] = target: GlcNAc(b1-3)Gal(b1-4)GlcNAc(b1-2)[GlcNAc(b1-3)Gal(b1-4)GlcNAc(b1-6)]Man(a1-6)[GlcNAc(b1-3)Gal(b1-4)GlcNAc(b1-2)Man(a1-3)]Man(b1-4)GlcNAc(b1-4)GlcNAc
# Outline: as §1
# [18] = target: GlcNAc(b1-3)Gal(b1-4)GlcNAc(b1-3)Gal(b1-4)GlcNAc
# Outline: as §1
# [19] = target: GlcNAc(b1-3)Gal(b1-4)GlcNAc(b1-3)Gal(b1-4)GlcNAc(b1-2)Man(a1-3)[GlcNAc(b1-3)Gal(b1-4)GlcNAc(b1-3)Gal(b1-4)GlcNAc(b1-2)Man(a1-6)]Man(b1-4)GlcNAc(b1-4)GlcNAc
# Outline: as §1
# [20] = target: GlcNAc(b1-3)Gal(b1-4)GlcNAc(b1-3)Gal(b1-4)GlcNAc(b1-2)Man(a1-3)[GlcNAc(b1-3)Gal(b1-4)GlcNAc(b1-3)Gal(b1-4)GlcNAc(b1-2)Man(a1-6)]Man(b1-4)GlcNAc(b1-4)[Fuc(a1-6)]GlcNAc
# Outline: as §1
# [21] = target: GlcNAc(b1-3)Gal(b1-4)GlcNAc(b1-3)Gal(b1-4)GlcNAc(b1-2)[GlcNAc(b1-3)Gal(b1-4)GlcNAc(b1-3)Gal(b1-4)GlcNAc(b1-6)]Man(a1-6)[GlcNAc(b1-3)Gal(b1-4)GlcNAc(b1-3)Gal(b1-4)GlcNAc(b1-2)Man(a1-3)]Man(b1-4)GlcNAc(b1-4)[Fuc(a1-6)]GlcNAc
# Outline: as §1
# [22] = target: GlcNAc(b1-3)Gal(b1-4)GlcNAc(b1-3)Gal(b1-4)GlcNAc(b1-3)Gal(b1-4)GlcNAc(b1-2)Man(a1-3)[GlcNAc(b1-3)Gal(b1-4)GlcNAc(b1-3)Gal(b1-4)GlcNAc(b1-3)Gal(b1-4)GlcNAc(b1-2)Man(a1-6)]Man(b1-4)GlcNAc(b1-4)GlcNAc
# Outline: as §1
# [23] = target: GlcNAc(b1-3)Gal(b1-4)GlcNAc(b1-3)Gal(b1-4)GlcNAc(b1-3)Gal(b1-4)GlcNAc(b1-2)Man(a1-3)[GlcNAc(b1-3)Gal(b1-4)GlcNAc(b1-3)Gal(b1-4)GlcNAc(b1-3)Gal(b1-4)GlcNAc(b1-2)Man(a1-6)]Man(b1-4)GlcNAc(b1-4)[Fuc(a1-6)]GlcNAc
# Outline: as §1
# [24] = target: GlcNAc(b1-3)Gal(b1-4)GlcNAc(b1-3)Gal(b1-4)GlcNAc(b1-3)Gal(b1-4)GlcNAc(b1-2)[GlcNAc(b1-3)Gal(b1-4)GlcNAc(b1-3)Gal(b1-4)GlcNAc(b1-3)Gal(b1-4)GlcNAc(b1-6)]Man(a1-6)[GlcNAc(b1-3)Gal(b1-4)GlcNAc(b1-3)Gal(b1-4)GlcNAc(b1-3)Gal(b1-4)GlcNAc(b1-2)Man(a1-3)]Man(b1-4)GlcNAc(b1-4)[Fuc(a1-6)]GlcNAc
# Outline: as §1
# [25] = target: GlcNAc(b1-3)Gal(b1-4)GlcNAc(b1-3)Gal(b1-4)GlcNAc(b1-3)Gal(b1-4)GlcNAc(b1-3)Gal(b1-4)GlcNAc(b1-2)Man(a1-3)[GlcNAc(b1-3)Gal(b1-4)GlcNAc(b1-3)Gal(b1-4)GlcNAc(b1-3)Gal(b1-4)GlcNAc(b1-3)Gal(b1-4)GlcNAc(b1-2)Man(a1-6)]Man(b1-4)GlcNAc(b1-4)GlcNAc
# Outline: as §1
# [26] = target: GlcNAc(b1-3)Gal(b1-4)GlcNAc(b1-3)Gal(b1-4)GlcNAc(b1-3)Gal(b1-4)GlcNAc(b1-3)Gal(b1-4)GlcNAc(b1-2)Man(a1-3)[GlcNAc(b1-3)Gal(b1-4)GlcNAc(b1-3)Gal(b1-4)GlcNAc(b1-3)Gal(b1-4)GlcNAc(b1-3)Gal(b1-4)GlcNAc(b1-2)Man(a1-6)]Man(b1-4)GlcNAc(b1-4)[Fuc(a1-6)]GlcNAc
# Outline: as §1
# [27] = target: GlcNAc(b1-3)Gal(b1-4)GlcNAc(b1-3)Gal(b1-4)GlcNAc(b1-3)Gal(b1-4)GlcNAc(b1-3)Gal(b1-4)GlcNAc(b1-2)[GlcNAc(b1-3)Gal(b1-4)GlcNAc(b1-3)Gal(b1-4)GlcNAc(b1-3)Gal(b1-4)GlcNAc(b1-3)Gal(b1-4)GlcNAc(b1-6)]Man(a1-6)[GlcNAc(b1-3)Gal(b1-4)GlcNAc(b1-3)Gal(b1-4)GlcNAc(b1-3)Gal(b1-4)GlcNAc(b1-3)Gal(b1-4)GlcNAc(b1-2)Man(a1-3)]Man(b1-4)GlcNAc(b1-4)[Fuc(a1-6)]GlcNAc
# Outline: as §1
# [28] = target: GlcNAc(b1-3)Gal(b1-4)GlcNAc(b1-3)Gal(b1-4)GlcNAc(b1-3)GalNAc
# Outline: as §1
# [29] = target: GlcNAc(b1-3)Gal(b1-4)GlcNAc(b1-3)GalNAc
# Outline: as §1
# [30] = target: GlcNAc(b1-3)Gal(b1-4)GlcNAc(b1-3)[GlcNAc(b1-3)Gal(b1-4)GlcNAc(b1-3)]GalNAc
# Outline: as §1
# [31] = target: GlcNAc(b1-3)Gal(b1-4)GlcNAc(b1-6)[Gal(b1-3)]GalNAc
# Outline: as §1
# [32] = target: GlcNAc(b1-3)Gal(b1-4)GlcNAc(b1-6)[GlcNAc(b1-3)Gal(b1-3)]GalNAc
# Outline: as §1
# [33] = target: GlcNAc(b1-3)Gal(b1-4)GlcNAc(b1-6)[GlcNAc(b1-3)]Gal(b1-4)GlcNAc
# Outline: as §1
# GlcNAc(b1-3)GalNAc = target: GlcNAc(b1-3)GalNAc
# Outline: as §1
# GlcNAc(b1-3)Man = target: GlcNAc(b1-3)Man
# Outline: as §1
# [34] = target: GlcNAc(b1-3)[GlcNAc(b1-4)][GlcNAc(b1-6)]GlcNAc
# Outline: as §1
# [35] = target: GlcNAc(b1-3)[GlcNAc(b1-6)]Gal(b1-4)GlcNAc
# Outline: as §1
# [36] = target: GlcNAc(b1-3)[GlcNAc(b1-6)]GalNAc
# Outline: as §1
# [37] = target: GlcNAc(b1-4)Gal(b1-4)GlcNAc
# Outline: as §1
# GlcNAc(b1-4)GlcNAc = target: GlcNAc(b1-4)GlcNAc
# Outline: as §1
# [38] = target: GlcNAc(b1-4)GlcNAc(b1-4)GlcNAc
# Outline: as §1
# [39] = target: GlcNAc(b1-4)GlcNAc(b1-4)GlcNAc(b1-4)GlcNAc(b1-4)GlcNAc
# Outline: as §1
binder,measurement,setting,value
LlpB (Pseudomonas fluorescens) (protein) MGSSHHHHHHSSGLVPRGSHMASSGFRIILFNSANNGTAILPPRNCLVAGQYLESPSKRYKLILEADGNLRLYDNGVPIWVADSSVPYTYVDNRPNTNLVTCFYMQGSAFLVDRVGSRTWATIGDWIDGAADRAYLQVQDDGNVVVVDGVPRWARFGFTPAALPNRGVFYPDHGTGPLPSFPVWSWTF,glycan array binding signal (z-score),[1],-0.798
same,glycan array binding signal (z-score),[2],-0.099
same,glycan array binding signal (z-score),[3],-1.18
same,glycan array binding signal (z-score),[4],-0.122
same,glycan array binding signal (z-score),[5],1.22
same,glycan array binding signal (z-score),[6],-0.436
same,glycan array binding signal (z-score),[7],-0.66
same,glycan array binding signal (z-score),[8],-0.546
same,glycan array binding signal (z-score),[9],-0.095
same,glycan array binding signal (z-score),[10],0.893
same,glycan array binding signal (z-score),[11],-0.317
same,glycan array binding signal (z-score),[12],0.999
same,glycan array binding signal (z-score),GlcNAc(b1-3)Fuc,1.24
same,glycan array binding signal (z-score),GlcNAc(b1-3)Gal,-1.01
same,glycan array binding signal (z-score),[13],1.43
same,glycan array binding signal (z-score),GlcNAc(b1-3)Gal(b1-4)Glc,-0.719
same,glycan array binding signal (z-score),[14],0.313
same,glycan array binding signal (z-score),[15],0.119
same,glycan array binding signal (z-score),[16],0.298
same,glycan array binding signal (z-score),[17],0.581
same,glycan array binding signal (z-score),[18],0.075
same,glycan array binding signal (z-score),[19],1.22
same,glycan array binding signal (z-score),[20],0.86
same,glycan array binding signal (z-score),[21],0.375
same,glycan array binding signal (z-score),[22],-0.084
same,glycan array binding signal (z-score),[23],0.362
same,glycan array binding signal (z-score),[24],0.847
same,glycan array binding signal (z-score),[25],-0.751
same,glycan array binding signal (z-score),[26],-0.668
same,glycan array binding signal (z-score),[27],-0.929
same,glycan array binding signal (z-score),[28],-1.19
same,glycan array binding signal (z-score),[29],1.59
same,glycan array binding signal (z-score),[30],0.272
same,glycan array binding signal (z-score),[31],1.38
same,glycan array binding signal (z-score),[32],1.18
same,glycan array binding signal (z-score),[33],-0.837
same,glycan array binding signal (z-score),GlcNAc(b1-3)GalNAc,-0.007
same,glycan array binding signal (z-score),GlcNAc(b1-3)Man,0.669
same,glycan array binding signal (z-score),[34],0.793
same,glycan array binding signal (z-score),[35],-0.461
same,glycan array binding signal (z-score),[36],-0.285
same,glycan array binding signal (z-score),[37],-1.19
same,glycan array binding signal (z-score),GlcNAc(b1-4)GlcNAc,-0.563
same,glycan array binding signal (z-score),[38],-0.667
same,glycan array binding signal (z-score),[39],-0.31

# 4 consecutive entries out of the list so far, quoted:
binder,measurement,setting,value
LlpB (Pseudomonas fluorescens) (protein) MGSSHHHHHHSSGLVPRGSHMASSGFRIILFNSANNGTAILPPRNCLVAGQYLESPSKRYKLILEADGNLRLYDNGVPIWVADSSVPYTYVDNRPNTNLVTCFYMQGSAFLVDRVGSRTWATIGDWIDGAADRAYLQVQDDGNVVVVDGVPRWARFGFTPAALPNRGVFYPDHGTGPLPSFPVWSWTF,glycan array binding signal (z-score),[1],-0.798
same,glycan array binding signal (z-score),[2],-0.099
same,glycan array binding signal (z-score),[3],-1.18
same,glycan array binding signal (z-score),[4],-0.122
